# Data as given in PubChem BioAssay AID602196 (INSERM, 2012)
# Purpose: 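Modifiers of cisplatin sensitivity in A549 cells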
# Cell system: human A549 lung cancer cells
# Knock-down reagent: siRNA pair against human genes
# Time to read-out: 48 h transfection before cisplatin; time from cisplatin to read-out not stated
# Conditions: cisplatin at a dose killing half of control-siRNA cells; exact dose and duration not given
# Read-out: 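Cisplatin cell death as a shift from the 50% death seen with control siRNA; siRNAs toxic or growth-blocking alone scored 0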
# Scale: two-siRNA summed score (-2 to +2): higher = both siRNAs protect from cisplatin killing; -2 means both sensitise; mean protection from cisplatin (shift in death) and protection from cisplatin (shift in death), siRNA C and protection from cisplatin (shift in death), siRNA D: higher = protection from cisplatin killing
# Hit rule: 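siRNAs harmful alone (LDH or WST-1) get 0; others get +1 for less and -1 for more cisplatin killing; genes are active when the two siRNAs give the same sign, summing to ±2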
# Meaning of the calls: active = both siRNAs shift cisplatin killing the same way; inactive = no consistent shift, or siRNA harmful alone
# In all, the deposit lists about 23,000 reagents; shown is an unselected part. Over the whole deposit, 455 (2%) got an active call. 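Active includes both protection and sensitisation; some change values fall well beyond the stated -50 to +50 range.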 No sequences are given here. The record does not give: the amount of reagent.
gene knocked down,two-siRNA summed score (-2 to +2),mean protection from cisplatin (shift in death) (%),"protection from cisplatin (shift in death), siRNA C (%)","protection from cisplatin (shift in death), siRNA D (%)",Outcome
ZNF93 (zinc finger protein 93),0,11,13.9,8.2,inactive
CA3 (carbonic anhydrase 3),0,4.2,-0.6,9,inactive
VAPB (VAMP associated protein B and C),0,1.8,7.8,-4.1,inactive
LOC440977,0,5.6,5.7,5.6,inactive
MARF1 (meiosis regulator and mRNA stability factor 1),0,16.3,1.9,30.6,inactive
WFDC11 (WAP four-disulfide core domain 11),0,6.1,8.9,3.3,inactive
WDR88 (WD repeat domain 88),0,-0.5,2.9,-3.8,inactive
"ZNF702P (zinc finger protein 702, pseudogene)",0,4.3,9.7,-1.1,inactive
LOC196337,1,17.6,13.7,21.5,inactive
GPI (glucose-6-phosphate isomerase),-1,-8.6,-19.3,2.2,inactive
ZNF680 (zinc finger protein 680),1,14.3,21,7.7,inactive
VPS33B (VPS33B late endosome and lysosome associated),0,0.6,-1.2,2.3,inactive
UTP3 (UTP3 small subunit processome component),0,4.4,1.6,7.2,inactive
ADCY10P1 (ADCY10 pseudogene 1),1,11.2,12.8,9.7,inactive
RNF7 (ring finger protein 7),0,-1.7,9.6,-13.1,inactive
ZNF223 (zinc finger protein 223),1,13.6,13.9,13.2,inactive
LOC388237,0,15.9,-3.8,35.7,inactive
ZNF213 (zinc finger protein 213),1,11.6,14.7,8.4,inactive
ADAP1 (ArfGAP with dual PH domains 1),1,-0.9,-22.3,20.5,inactive
RPL32 (ribosomal protein L32),0,9.1,15.6,2.6,inactive
MARCHF10 (membrane associated ring-CH-type finger 10),1,18.1,21,15.2,inactive
JPT1 (Jupiter microtubule associated homolog 1),-1,0.7,-9.3,10.7,inactive
AGRP (agouti related neuropeptide),0,-4.4,13.2,-22,inactive
LOC400879 (retired record),0,7.1,18.2,-3.9,inactive
"FNTB (farnesyltransferase, CAAX box, subunit beta)",0,-3.4,-13.4,6.7,inactive
SLC35A5,0,0.3,2.8,-2.1,inactive
SPATA8 (spermatogenesis associated 8),0,24.7,18.6,30.7,inactive
LINC00922 (long independently transcribed non-coding RNA 922),0,20.2,26.7,13.7,inactive
CLEC9A (C-type lectin domain containing 9A),0,0.7,-8.2,9.6,inactive
COL10A1 (collagen type X alpha 1 chain),1,23,20.8,25.3,inactive
LOC440262,0,-3.8,-4.4,-3.2,inactive
LOC401057,0,6.8,5.5,8.2,inactive
SH3TC2 (SH3 domain and tetratricopeptide repeats 2),0,3.7,-2.9,10.3,inactive
MGC26597,1,14.8,27.8,1.8,inactive
LVRN (laeverin),1,15.6,7.4,23.9,inactive
"LONP1 (lon peptidase 1, mitochondrial)",0,6.3,8.9,3.7,inactive
NCBP2 (nuclear cap binding protein subunit 2),0,-10.3,15.4,-36.1,inactive
SLC4A1AP,0,7.3,7.5,7,inactive
CNRIP1 (cannabinoid receptor interacting protein 1),0,10.9,-0.6,22.4,inactive

Entries above whose gene name begins with C or c:
gene knocked down,two-siRNA summed score (-2 to +2),mean protection from cisplatin (shift in death) (%),"protection from cisplatin (shift in death), siRNA C (%)","protection from cisplatin (shift in death), siRNA D (%)",Outcome
CA3 (carbonic anhydrase 3),0,4.2,-0.6,9,inactive
CLEC9A (C-type lectin domain containing 9A),0,0.7,-8.2,9.6,inactive
COL10A1 (collagen type X alpha 1 chain),1,23,20.8,25.3,inactive
CNRIP1 (cannabinoid receptor interacting protein 1),0,10.9,-0.6,22.4,inactive
